## Screening data

The results are deposited in PubChem (AID2061315; NCATS, 2025).

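Human aldehyde dehydrogenase 1A3 (retinaldehyde dehydrogenase 3) is screened for compounds that block its enzyme activity across a concentration series; the incubation time is not stated here. Each compound was run as a concentration series reaching mostly up to 56 µM. The value is a fitted potency (AC50) for inhibition of the enzyme; a lower number means a more potent inhibitor. Calls follow the shape of the inhibition curve; every row here is inconclusive, covering weak, partial, poorly fitted or single-point inhibition.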

Values are in µM. Every entry below has the call inconclusive. Only part of the assay is shown, chiefly results filed as inconclusive. Potencies fitted to partial, single-point or poorly fitting curves are rough.

{"structure": "CN(C)c1cccc(-c2c3c(=O)n(-c4ccccc4Cl)[nH]c3cc(=O)n2C)c1", "potency (µM)": "7.943", "remark": "inhibitor, partial curve"}
{"structure": "CC1(C)SCCN(S(=O)(=O)c2ccc(Oc3ccncc3)cc2)[C@H]1C(=O)NO", "potency (µM)": "19.95", "remark": "inhibitor, partial curve, poor fit"}
{"structure": "C=C1/C(=C/C=C2\\CCC[C@]3(C)[C@@H]([C@H](C)/C=C/C(=O)C4CC4)CC[C@@H]23)C[C@@H](O)C[C@@H]1O", "potency (µM)": "39.81", "remark": "inhibitor, partial curve, poor fit"}
{"structure": "COCCN(C(=O)c1cc(OC)c(OC)c(OC)c1)c1nc(-c2ccccc2)cs1", "potency (µM)": "11.22", "remark": "inhibitor, partial curve, poor fit"}
{"structure": "O=C(CCCCCCNC(=O)c1cnc(N(c2ccccc2)c2ccccc2)nc1)NO", "potency (µM)": "6.31", "remark": "inhibitor, partial curve"}
{"structure": "NC(=O)c1noc([C@H](CCCC2CCCCC2)CC(=O)NO)n1", "potency (µM)": "11.22", "remark": "inhibitor, partial curve"}
{"structure": "COc1ccc(NC(=O)N2CCc3c2ccc2ccccc32)cc1N1CCN(C)CC1", "potency (µM)": "25.12", "remark": "inhibitor, partial curve, poor fit"}
{"structure": "Cc1ccc(S(=O)(=O)c2ccc([N+](=O)[O-])o2)cc1", "potency (µM)": "14.13", "remark": "inhibitor, partial curve"}
{"structure": "COc1cc(N2CCC(N3CCN(C)CC3)CC2)ccc1Nc1ncc(Cl)c(-c2c[nH]c3ccccc23)n1", "potency (µM)": "8.912", "remark": "inhibitor, single point"}
{"structure": "CC(/C=C/C(=O)NO)=C\\[C@@H](C)C(=O)c1ccc(N(C)C)cc1", "potency (µM)": "1.778", "remark": "inhibitor, full curve, poor fit"}
{"structure": "COC1CC(OC2CCC3(C)C(CCC4C3CCC3(C)C(C5=CC(=O)OC5)C(OC(C)=O)CC43O)C2)OC(C)C1OC1OC(CO)C(O)C(O)C1O", "stereo": "centres undefined", "potency (µM)": "5.623", "remark": "inhibitor, partial curve"}
{"structure": "O=C(O)c1cccc(-c2noc(-c3cccc(Cl)c3)n2)c1", "potency (µM)": "0.3162", "remark": "inhibitor, full curve, poor fit"}
{"structure": "N#Cc1c(-c2ccc([N+](=O)[O-])o2)no[n+]1[O-]", "potency (µM)": "10", "remark": "inhibitor, partial curve, poor fit"}
{"structure": "O=C(/C=C/C=C/c1ccc2c(c1)OCO2)N1CCCCC1", "potency (µM)": "15.85", "remark": "inhibitor, single point"}
{"structure": "CNC(=O)c1ccccc1Nc1cc(Nc2ccc(N3CCOCC3)cc2OC)ncc1C(F)(F)F", "potency (µM)": "7.943", "remark": "inhibitor, partial curve"}
{"structure": "COc1cccc(CNc2ccc(S(=O)(=O)Nc3nc(C)c(C)s3)cc2)c1O", "potency (µM)": "7.08", "remark": "inhibitor, full curve, poor fit"}
{"structure": "CN1CCN(C2CCN(Cc3ccc(O)c4ncccc34)CC2)CC1", "potency (µM)": "39.81", "remark": "inhibitor, single point"}
{"structure": "O=C(NNc1ccccc1)c1ccncc1", "potency (µM)": "19.95", "remark": "inhibitor, partial curve, poor fit"}
{"structure": "COc1cc(/C=C/C(=O)OC[C@H]2O[C@H](O[C@]3(CO)O[C@H](CO)[C@@H](O)[C@@H]3O)[C@H](O)[C@@H](O)[C@@H]2O)cc(OC)c1O", "potency (µM)": "8.912", "remark": "inhibitor, partial curve"}

Repeated from the top, 2 entries:

structure	potency (µM)	remark
CN(C)c1cccc(-c2c3c(=O)n(-c4ccccc4Cl)[nH]c3cc(=O)n2C)c1	7.943	inhibitor, partial curve
CC1(C)SCCN(S(=O)(=O)c2ccc(Oc3ccncc3)cc2)[C@H]1C(=O)NO	19.95	inhibitor, partial curve, poor fit